Assay results: publication PMC11969663

Molecular target: 6×His-tagged RID (N. crassa)
Experiment: affinity purification with mass spectrometry; 6×His-tagged RID from the native locus; sexual asci lysed in 50 mM HEPES pH 7.4, 137 mM NaCl, 10% glycerol with protease inhibitors; Ni-NTA Sefinose Resin, imidazole elution, SDS-PAGE, Coomassie, mass spectrometry

B1: HDA-2 (enzyme, UniProt Q7SEL7 1-499)
chain: MDTLQSLQWRPPKPNYLPHDIDVDEPIVDVYKPPIPMDKASDRENQEYYAHMKRMAHEYNITRPKGYTVSYHFNPDMEPHHFGLTHPMKPFRLTLTKSLVTAYGMNFAMDNYNTRIATYEELNSFHTSDYLDYLHMAPPEEMPRDIDNPDKEVKFNLGGSDCPLFHGLYDYCSMSAGSSLDAARKICNKQSDIAIAWGGGLHHAKKSEASGFCYINDIVIAILQLLRCYPRVLYIDIDVHHGDGVEEAFHSTDRVLTCSFHKFAPEVFFPGTGGLDDNGPKSEHNPGAHHAINVPLNDGITDEQYGHLFQSVIGKINEKFRPSVIALQCGADSLAGDRLGRFNLQVQGHGACAKFCKTFGIPMIMFGGGGYTPRNVARAWAYETSVAIDVDEKINKIIPDHTPWRKHFVQEELFPSLEQILGEPRANRNSQKRLQEIIQHVHEQLRFVNAAPSVQQQVIPPDLGGIRDDVEDRLKEESEERDEGLRRDREEGLGISGEF
- binding: binds

No constants are given. Whether binding was seen depends on the method and setting. Binding seen in cells or lysates may run through a third protein. Here binding means that the protein was enriched with, or labelled near, the bait; the list need not be complete.
